Experimental data from PubChem BioAssay AID2685 (National Center for Advancing Translational Sciences (NCATS), 2010).
Some of the results follow. Further columns of the screen follow, without active or inactive calls. Compounds called inactive in the main read-out are mostly missing here. Potencies come from curve fits of mixed quality, noted in brackets.

Assay: qHTS Assay for Lipid Storage Modulators in Drosophila S3 Cells;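 as to cell number change: cells counted by Cell Tracker Red CMTPX staining in the red channel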
Conditions: BODIPY lipid droplet fluorescence, 18-24 h; for cell number change: measured here: cell count max response, cells fed with added oleic acid
Procedure, shortened: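 Drosophila S3 cells loaded with oleic acid (400 uM, as added) and compounds at several concentrations; lipid droplets imaged by 488-nm laser-scanning cytometry, 500–530 nm intensity and object ratio to cell channel. Percent activity normalized to 20 uM Triacsin C.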

[1] = measured here: lipid fluorescence (Fed channel) AC50, cells fed with added oleic acid
[2] = measured here: cell number channel AC50, cells fed with added oleic acid

CC(C)(C)C(=O)N1CCN(S(=O)(=O)c2ccc3c(c2)OCCCO3)CC1
cell number change: 13.5%
AC50 [1]: 18.4 µM [rising, single point]

Fc1ccc(-n2c(Cc3ccccc3)nnc2SCc2nc(-c3ccc(Cl)cc3)no2)cc1
cell number change: 139%
AC50 [2]: 9.2 µM [rising, partial curve]
AC50 [1]: 6.51 µM [rising, partial curve]

CCCCCc1c(O)c2ccccc2[nH]c1=O
cell number change: -203%
AC50 [2]: 29.1 µM [falling, partial curve]
AC50 [1]: 23.1 µM [falling, partial curve]

O=C(/C=C/c1ccc(OC2CSC2)cc1)c1ccc(Cl)cc1
cell number change: 8.26%
AC50 [1]: 9.2 µM [rising, single point]

CC(OC(=O)c1c2c(nc3ccccc13)/C(=C\c1ccc3c(c1)OCO3)CCC2)C(=O)Nc1ccc(S(N)(=O)=O)cc1 (stereo not drawn)
cell number change: 5.63%

CS(=O)(=O)N1CCN(CC(=O)NC2CCCC2)CC1
cell number change: -10.8%

CCCc1nc(SC2CCCC2)c2c(=O)n(C)c(=O)n(C)c2n1
AC50 [1]: 0.0731 µM [rising, full curve, poor fit]

COc1ccc(-c2ccc3ccccc3n2)cc1OC
cell number change: -3.38%
AC50 [1]: 6.51 µM [rising, partial curve, poor fit]

COc1ccc(N2C(=O)CC(N(Cc3ccc(S(N)(=O)=O)cc3)C(C)=O)C2=O)cc1 (stereo not drawn)
cell number change: -13.7%
AC50 [2]: 0.146 µM [falling, full curve]

CCC(C)(C(=O)NC1CCCCC1)N(C(=O)C1CCC(=O)N1)c1ccccc1 (stereo not drawn)
cell number change: -68.6%
AC50 [2]: 29.1 µM [falling, partial curve]
AC50 [1]: 16.4 µM [falling, partial curve]

O=C(c1cccc(N2CCCC2=O)c1)N1CCN(c2cccc(Cl)c2)CC1
cell number change: 3.61%
AC50 [1]: 25.9 µM [rising, single point]

CCCCc1nn(-c2cc(Cl)ccc2OC)c2c1C(=O)CC(C)(C)C2
cell number change: 52.2%
AC50 [2]: 29.1 µM [rising, single point]

COc1ccc(-n2nc(C(=O)NCC(=O)NC(C)C)c3ccccc3c2=O)c(OC)c1
cell number change: 12.6%

O=C(CCS(=O)(=O)Cc1ccccc1)Nc1ccc2c(c1)OCCO2
cell number change: -42%
AC50 [2]: 29.1 µM [falling, single point]
AC50 [1]: 29.1 µM [falling, single point]

O=C(NCc1ccc(Cl)cc1)c1ccc(-c2ccccc2C(F)(F)F)o1
cell number change: -33%
AC50 [2]: 1.64 µM [falling, full curve, poor fit]
AC50 [1]: 1.84 µM [falling, full curve, poor fit]

CCN1C(=O)[C@H]2[C@@H](c3ccc(-c4ccccc4)c(OC)c3)N[C@@](Cc3ccccc3)(C(=O)OC)[C@H]2C1=O
cell number change: 5.02%
AC50 [2]: 0.13 µM [falling, full curve, poor fit]

CCN(CC(=O)Nc1ccccc1C(F)(F)F)C(=O)CCS(=O)(=O)c1ccc(Cl)cc1
AC50 [2]: 0.116 µM [falling, full curve, poor fit]

COc1ccc(/C=N/NC(=O)c2cccc([N+](=O)[O-])c2)cc1O
AC50 [2]: 0.517 µM [falling, single point]
AC50 [1]: 0.13 µM [falling, full curve, poor fit]

Cc1ccc(C(=O)N/C(=C/c2ccc(F)cc2)C(=O)NCc2ccncc2)cc1
cell number change: -9.78%
AC50 [1]: 3.26 µM [falling, full curve]

O=C(Nc1ccc(S(=O)(=O)N2CCOCC2)cc1)c1ccc(F)cc1
cell number change: -7.88%
AC50 [1]: 29.1 µM [falling, single point]

COc1ccc(C(=O)Nc2ccc(N3CCN(C)CC3)cc2)cc1[N+](=O)[O-]
cell number change: 33.4%

COc1ccc(CN(C#N)c2nc(C)cc(C)n2)cc1
cell number change: 36.1%
AC50 [2]: 0.517 µM [rising, full curve, poor fit]

Cc1ccc(SCCNC(=O)/C=C/c2ccc([N+](=O)[O-])cc2)cc1
cell number change: 9.05%
AC50 [1]: 0.13 µM [falling, full curve]

O=C(/C=C/c1ccc(Br)o1)NCCCN1CCOCC1
cell number change: 34.5%
AC50 [1]: 29.1 µM [rising, single point]

C#CCC(NC(=O)c1ccc(C#N)cc1)C(=O)NCCC (stereo not drawn)
cell number change: -3.1%
AC50 [1]: 0.82 µM [falling, single point]

Cc1cccc(NC(=O)C2CCCN(S(=O)(=O)c3ccc4[nH]c(=O)ccc4c3)C2)c1 (stereo not drawn)
cell number change: 22.5%
AC50 [1]: 6.51 µM [rising, partial curve]

O=C(Nc1ccc(Cl)cc1)Nc1nc(-c2ccccc2O)cs1
cell number change: -34.4%
AC50 [2]: 13 µM [falling, partial curve]
AC50 [1]: 4.61 µM [falling, full curve]

CCCCOc1ccc(/C=N/Nc2cc(N3CCOCC3)nc(C)n2)cc1
cell number change: -48%
AC50 [2]: 14.6 µM [falling, single point]
AC50 [1]: 18.4 µM [falling, partial curve, poor fit]

CC(=O)c1cn(CCOc2cc(C)ccc2C)c2ccccc12
cell number change: 49.5%
AC50 [2]: 32.6 µM [rising, single point]
AC50 [1]: 10.3 µM [falling, partial curve]

O=c1[nH]c2ccc(NCc3ccc(OCc4ccccc4Cl)cc3)cc2[nH]1
cell number change: 187%
AC50 [2]: 29.1 µM [rising, partial curve]
AC50 [1]: 0.13 µM [rising, full curve, poor fit]

Cc1ccc(/C=N\NC(=O)c2cc(OCC(F)(F)F)ccc2OCC(F)(F)F)cc1
cell number change: 105%
AC50 [2]: 25.9 µM [rising, partial curve]

COC(=O)c1c(NC(=O)CN(c2ccccc2)S(C)(=O)=O)sc2c1CCCC2
cell number change: 25%
AC50 [1]: 13 µM [rising, partial curve, poor fit]

O=C(CN1C(=O)c2cccc3cccc1c23)N1CCc2ccccc2C1
cell number change: 40%
AC50 [2]: 2.31 µM [rising, full curve, poor fit]
AC50 [1]: 2.06 µM [rising, full curve]

O=C(NCC1OCCCN1S(=O)(=O)c1cc(F)ccc1F)C(=O)NC1CCCCC1 (stereo not drawn)
cell number change: -31.9%
AC50 [2]: 0.259 µM [falling, full curve, poor fit]
AC50 [1]: 6.51 µM [falling, partial curve, poor fit]
